Measurements: PubChem BioAssay AID2685 (National Center for Advancing Translational Sciences (NCATS), 2010)
Some of the results follow. Shown are side measurements of this screen, not its main read-out; they come without a call. Most of these compounds were active or inconclusive in the main read-out, so they are no random draw. The note in brackets gives the kind of curve behind each potency; many fits are weak.

Assay: qHTS Assay for Lipid Storage Modulators in Drosophila S3 Cells;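 on cell number change: cells counted by Cell Tracker Red CMTPX staining in the red channel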
Conditions: BODIPY lipid droplet fluorescence, 18-24 h; for cell number change: measured here: cell count max response, cells fed with added oleic acid
In short: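 Drosophila S3 cells loaded with oleic acid (400 uM, as added) and compounds at several concentrations; lipid droplets imaged by 488-nm laser-scanning cytometry, 500–530 nm intensity and object ratio to cell channel. Percent activity normalized to 20 uM Triacsin C.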

[1] = measured here: lipid fluorescence (Fed channel) AC50, cells fed with added oleic acid
[2] = measured here: cell number channel AC50, cells fed with added oleic acid

In the case of CCCn1c(N)c(C(=O)CSc2nc3ccccc3c(=O)n2-c2ccc(OC)cc2)c(=O)[nH]c1=O, the cell number change is reported as 12.2% and the AC50 [1] is reported as 29.1 µM [rising, single point].
In the case of O=C(O)c1ccc(/C=N/NC(=O)c2ccc(Br)cc2)cc1, the AC50 [2] is reported as 0.82 µM [falling, single point] and the AC50 [1] is reported as 0.58 µM [falling, single point].
In the case of CCc1noc(C)c1C(=O)Oc1ccc(N(C)S(=O)(=O)c2ccccc2)cc1, the cell number change is reported as -35.3% and the AC50 [2] is reported as 29.1 µM [falling, single point].
With COc1ccccc1NC(=O)CSc1nnc(Cc2cccn2C)n1-c1ccc(F)cc1 the cell number change was 13.5% and the AC50 [1] was 6.51 µM [rising, partial curve, poor fit].
For Cc1ccc(C(=O)/C=C\C(=O)c2ccc(C)cc2)cc1, the cell number change was -57.3%, the AC50 [2] was 16.4 µM [falling, single point] and the AC50 [1] was 18.4 µM [falling, single point].
For O=C(N/N=C/c1ccccn1)c1ccc(NC(=O)c2ccccc2Cl)cc1, the cell number change was -13.2% and the AC50 [1] was 4.47 µM [rising, full curve, poor fit].
In the case of Cc1ccc(NC(=O)COC(=O)C2CC2)cc1Cl, the cell number change is reported as -4.2%, the AC50 [2] is reported as 0.13 µM [falling, full curve, poor fit] and the AC50 [1] is reported as 0.103 µM [falling, full curve, poor fit].
For O=C(NCc1ccccc1)C1CC(=O)N(c2ccc(OCC(=O)N3CCOCC3)cc2)C1 (configuration not stated), the cell number change was 25% and the AC50 [2] was 1.64 µM [rising, full curve, poor fit].
With Cc1ccc(CNC(=O)CN2C(=O)NC(C)(c3ccccc3Cl)C2=O)cc1 (configuration not stated) the AC50 [2] was 6.51 µM [rising, single point] and the AC50 [1] was 6.51 µM [rising, single point].
With COc1cccc(OCCNC(=O)Nc2cc(F)c(F)cc2Cl)c1 the AC50 [1] was 0.116 µM [falling, partial curve, poor fit].
In the case of COc1cc(OC)c(C(=O)NC23CC4CC(CC(C4)C2)C3)cc1OC, the cell number change is reported as -42.1% and the AC50 [2] is reported as 18.4 µM [falling, single point].
With NNc1ccc(Cc2ccc(Cl)cc2Cl)nn1 the cell number change was -0.261% and the AC50 [2] was 6.51 µM [falling, single point].
For Cc1sc2ncnc(SCC(=O)NC(=O)NCc3ccco3)c2c1C, the cell number change was 55.5% and the AC50 [2] was 20.6 µM [rising, single point].
With O=C(Nc1ccccc1C(=O)Nc1ccc2c(c1)OCO2)c1cccs1 the AC50 [2] was 0.231 µM [rising, full curve] and the AC50 [1] was 0.517 µM [rising, full curve].
With COC(=O)c1nnn(CC(=O)NC(=O)Nc2cccc(Cl)c2C)c1C(=O)OC the AC50 [1] was 0.461 µM [rising, single point].
With CCOC(=O)c1cnc2nc(C)[nH]n2c1=O the cell number change was -6.96% and the AC50 [1] was 0.00411 µM [falling, full curve, poor fit].
In the case of COc1ccc(Cl)cc1C(=O)CSc1nc(N)cc(N)n1, the cell number change is reported as 20.4%, the AC50 [2] is reported as 1.84 µM [rising, full curve, poor fit] and the AC50 [1] is reported as 0.731 µM [rising, full curve].
For COC(=O)N/N=C/c1cn(Cc2ccc(Cl)cc2Cl)c2ccccc12, the cell number change was -25.1% and the AC50 [1] was 3.66 µM [falling, partial curve].
With O=C(CNC(=O)c1ccc(F)cc1)N/N=C/c1cccnc1 the cell number change was -3.97%, the AC50 [2] was 5.17 µM [rising, single point] and the AC50 [1] was 7.31 µM [falling, single point].
In the case of O=C(NCCCN1CCCC1=O)c1cc(=O)c2ccccc2o1, the cell number change is reported as 8.12% and the AC50 [2] is reported as 0.411 µM [falling, single point].
With O=C(CCC1CCCC1)NCCS(=O)(=O)N1CCN(c2ccccc2)CC1 the AC50 [2] was 0.092 µM [falling, full curve, poor fit].
With Cc1cccc(CN2C(=O)c3ccccc3Sc3ccc(C(=O)NCCCN4CCOCC4)cc32)c1 the AC50 [1] was 7.31 µM [rising, partial curve].
COCCCn1c(SCC(=O)c2ccccc2)nc2ccccc2c1=O showed a cell number change of -12.1%.
In the case of O=C(CN(C(=O)c1csnn1)c1ccc(F)cc1)NCc1ccc2c(c1)OCO2, the cell number change is reported as 1.28% and the AC50 [1] is reported as 6.51 µM [rising, single point].
For Cc1cccc(N)c1-c1c(C)cccc1N, the cell number change was 13.1% and the AC50 [1] was 29.1 µM [rising, single point].
For Cc1ccc(CC2CC(=O)N(c3ccncc3)C2=O)cc1 (configuration not stated), the cell number change was 4.67% and the AC50 [1] was 0.517 µM [falling, full curve, poor fit].
In the case of COc1ccc(Br)cc1/C=N/n1c(C)nc2ccccc2c1=O, the AC50 [1] is reported as 6.51 µM [falling, single point].
For CC(=O)Nc1ccc(S(=O)(=O)NCC2CCC(C(=O)NCCC3=CCCCC3)CC2)cc1 (configuration not stated), the AC50 [1] was 0.461 µM [rising, full curve].
With CCc1nc(SCC(=O)c2cccs2)c2oc3ccccc3c2n1 the cell number change was -25% and the AC50 [1] was 18.4 µM [falling, single point].
With O=C(CCc1ccccc1)NC(=S)Nc1cccc(C(=O)O)c1 the cell number change was 24.4% and the AC50 [1] was 29.1 µM [rising, single point].
For Cc1nn(C)c(C)c1CN(C)C(=O)C1CCC(=O)N(C2CCCCCC2)C1 (configuration not stated), the cell number change was 1.94% and the AC50 [2] was 0.184 µM [rising, full curve, poor fit].
For CCOC(=O)C1/C(=N\O)CC(C)(O)C(C(=O)OCC)C1c1ccc(N(C)C)cc1 (configuration not stated), the AC50 [2] was 4.11 µM [rising, single point].
Work on CNC(=O)c1cc2cc(OC)ccc2oc1=O yielded a cell number change of 25.6%.
In the case of COC(=O)c1c(NC(=O)Cc2ccccc2)sc(C)c1C, the AC50 [2] is reported as 1.46 µM [rising, partial curve] and the AC50 [1] is reported as 2.91 µM [rising, partial curve].
For O=C(CSc1nccn1-c1ncc(C(F)(F)F)cc1Cl)c1ccc(Br)cc1, the cell number change was 10.2% and the AC50 [1] was 6.51 µM [rising, partial curve].
In the case of CCCCS(=O)c1snnc1C (configuration not stated), the cell number change is reported as 78.2%, the AC50 [2] is reported as 3.26 µM [falling, single point] and the AC50 [1] is reported as 4.11 µM [falling, partial curve].
For COc1c(O)cc2c(c1O)[C@@H]1O[C@H](CO)[C@@H](O)[C@H](O)[C@H]1OC2=O, the cell number change was -13.9% and the AC50 [1] was 0.58 µM [falling, partial curve].
With N#Cc1cc(C(=O)c2ccccc2O)cn(-c2nccs2)c1=O the cell number change was 2.33% and the AC50 [1] was 11.6 µM [rising, partial curve].
With CCOc1ccc(NC(=O)CC2SC(N)=NC2=O)c([N+](=O)[O-])c1 (configuration not stated) the cell number change was 9.09%.
For O/C(=C\c1nc2ccccc2nc1/C=C(\O)c1ccccc1)c1ccccc1, the cell number change was 9.63% and the AC50 [1] was 0.00461 µM [rising, full curve, poor fit].
With O=C(Nc1ccc(N2C(=O)C3C4C=CC(C4)C3C2=O)cc1)Nc1nnc(C(F)(F)F)s1 (configuration not stated) the cell number change was -39.8%, the AC50 [2] was 0.411 µM [falling, full curve, poor fit] and the AC50 [1] was 0.13 µM [falling, full curve, poor fit].
With COc1ccc(NC(=O)CSCC(=O)N(C)CCOc2ccc(Cl)cc2)cc1 the cell number change was 3.3% and the AC50 [1] was 4.11 µM [rising, partial curve].
In the case of COc1ccc(CNC(=O)C2CCC(CNS(=O)(=O)c3ccc(C)cc3)CC2)cc1 (configuration not stated), the cell number change is reported as 23.2% and the AC50 [1] is reported as 3.26 µM [rising, full curve, poor fit].
With Cc1c(Cl)cccc1NC(=O)C1Cc2ccccc2CN1C(=O)c1ccccc1 (configuration not stated) the cell number change was 15% and the AC50 [1] was 4.11 µM [rising, full curve, poor fit].
For CC1(C)Cc2nc(NCCCO)c(C#N)cc2CO1, the cell number change was -7.26% and the AC50 [1] was 6.51 µM [falling, single point].
In the case of CCCCCCNC(=O)CC(c1ccccc1)c1cc(Br)ccc1O (configuration not stated), the cell number change is reported as -4.99%, the AC50 [2] is reported as 1.03 µM [falling, partial curve, poor fit] and the AC50 [1] is reported as 1.84 µM [falling, partial curve, poor fit].
For CC(=O)N1c2ccc(S(=O)(=O)N(C)CC(=O)NC(C)c3ccccc3)cc2CC1C (configuration not stated), the cell number change was -0.298% and the AC50 [1] was 0.00461 µM [falling, full curve, poor fit].
In the case of COC(=O)C1=C(N)c2c(F)cccc2C1(C#N)c1ccc(F)cc1 (configuration not stated), the cell number change is reported as 62.8%, the AC50 [2] is reported as 16.4 µM [rising, single point] and the AC50 [1] is reported as 0.184 µM [falling, full curve, poor fit].
For CC(C(=O)NC1(C#N)CCCCC1)N(C)CC(=O)Nc1ccc(Cl)c(Cl)c1 (configuration not stated), the cell number change was -5.55% and the AC50 [1] was 0.326 µM [falling, partial curve, poor fit].
In the case of CCCn1cnc2cc(NCc3cccs3)ccc21, the cell number change is reported as 13.4% and the AC50 [1] is reported as 0.731 µM [rising, full curve, poor fit].
For Cc1cc(-c2ccc(C)c(S(=O)(=O)NCCc3ccco3)c2)on1, the AC50 [1] was 1.64 µM [rising, partial curve, poor fit].
In the case of O=[N+]([O-])c1cc(S(=O)(=O)NCCc2ccccn2)ccc1Cl, the cell number change is reported as -37.3%, the AC50 [2] is reported as 0.291 µM [falling, full curve, poor fit] and the AC50 [1] is reported as 0.0259 µM [falling, full curve, poor fit].
In the case of Cc1ccnc2nc(C(=O)OCC(=O)N3CCc4ccccc43)nn12, the cell number change is reported as -27.9% and the AC50 [1] is reported as 25.9 µM [falling, single point].
With CC(=O)Nc1ccc(S(=O)(=O)NCCS(=O)(=O)N2CCN(c3ccccc3)CC2)cc1 the cell number change was 11.6%.
In the case of O=C(O)CN1C(=O)NC2NC(=O)NC21 (configuration not stated), the cell number change is reported as -40.1%, the AC50 [2] is reported as 5.8 µM [falling, full curve] and the AC50 [1] is reported as 4.11 µM [falling, full curve].
For Cc1ccc(C2=NNC(C(O)C(O)C(O)C(O)CO)S2)cc1 (configuration not stated), the AC50 [1] was 20.6 µM [falling, partial curve].
With Cc1cc(C)c2oc(C(=O)N3CCN(Cc4ccccc4)CC3)cc(=O)c2c1 the cell number change was 36.1%, the AC50 [2] was 10.3 µM [rising, partial curve] and the AC50 [1] was 1.84 µM [rising, full curve, poor fit].
